Values from PubChem BioAssay AID743454 (Peter MacCallum Cancer Centre, 2014).

Purpose: 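Knock-downs lowering viability or raising caspase 3/7 activity in vorinostat-treated resistant cells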 (primary screen)
System: human HCT116-VR colon cancer cells, selected for vorinostat resistance
Reagent: siRNA pool against human genes, 40 nM siRNA pool
Time to read-out: vorinostat for 24 h, read-out about 72 h after transfection
Treatment: vorinostat at 2.5 µM final
Read-out: 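Cell viability by CellTiter-Fluor and caspase 3/7 activity by luminescence, each scaled to mock wells per plate, duplicates averaged, then robust z-scored over all plates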
Direction: viability robust z-score: higher = more viable cells than screen typical; caspase robust z-score: higher = more caspase 3/7 activity than screen typical
Rule for the call: 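Hits are knock-downs in viability class RV1/RV2 or caspase class CA1/CA2, excluding ones that killed cells in the no-drug cell-count arm; hits then retested with single siRNAs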
Here is one part, drawn at random, of about 18,000 reagents. Of all reagents, 450 (2.5%) were called active. 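Single biological run; no consistent viability z cut-off exists, so the class columns, not z-scores, define the calls.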 The numbers tell different reagents against one gene apart.

AGAP2: viability hit class = no change; caspase hit class = no change; viability robust z-score = -1.64; caspase robust z-score = 0.88; outcome = inactive
OSBPL5: viability hit class = no change; caspase hit class = no change; viability robust z-score = 0.62; caspase robust z-score = -0.63; outcome = inactive
ST6GAL1: viability hit class = no change; caspase hit class = no change; viability robust z-score = -1.31; caspase robust z-score = 3.68; outcome = inactive
CPSF3: viability hit class = no change; caspase hit class = no change; viability robust z-score = -1.11; caspase robust z-score = -1.1; outcome = inactive
RHOD: viability hit class = no change; caspase hit class = no change; viability robust z-score = 0.71; caspase robust z-score = 1.04; outcome = inactive
PTPRB: viability hit class = no change; caspase hit class = no change; viability robust z-score = 2.21; caspase robust z-score = -0.2; outcome = inactive
MRC1 #1: viability hit class = no change; caspase hit class = no change; viability robust z-score = -0.2; caspase robust z-score = -0.6; outcome = inactive
MRC1 #2: viability hit class = no change; caspase hit class = no change; viability robust z-score = -0.3; caspase robust z-score = -1.26; outcome = inactive
IER2: viability hit class = no change; caspase hit class = no change; viability robust z-score = 0.31; caspase robust z-score = -0.84; outcome = inactive
HRH3: viability hit class = no change; caspase hit class = no change; viability robust z-score = 0.44; caspase robust z-score = 2.76; outcome = inactive
EARS2: viability hit class = no change; caspase hit class = no change; viability robust z-score = -0.66; caspase robust z-score = 2.8; outcome = inactive
GPR32: viability hit class = no change; caspase hit class = no change; viability robust z-score = -0.24; caspase robust z-score = 0.84; outcome = inactive
SLC38A3: viability hit class = no change; caspase hit class = no change; viability robust z-score = -1.54; caspase robust z-score = 3.61; outcome = inactive
IZUMO1R: viability hit class = no change; caspase hit class = no change; viability robust z-score = -0.13; caspase robust z-score = -0.74; outcome = inactive
GYS1: viability hit class = no change; caspase hit class = no change; viability robust z-score = 1.6; caspase robust z-score = 0.06; outcome = inactive
CRYBB3: viability hit class = no change; caspase hit class = no change; viability robust z-score = -0.15; caspase robust z-score = -0.71; outcome = inactive
CREB1: viability hit class = no change; caspase hit class = no change; viability robust z-score = -1.15; caspase robust z-score = 1.34; outcome = inactive

A run of entries of the results above, for reference:
MRC1 #1: viability hit class = no change; caspase hit class = no change; viability robust z-score = -0.2; caspase robust z-score = -0.6; outcome = inactive
MRC1 #2: viability hit class = no change; caspase hit class = no change; viability robust z-score = -0.3; caspase robust z-score = -1.26; outcome = inactive
IER2: viability hit class = no change; caspase hit class = no change; viability robust z-score = 0.31; caspase robust z-score = -0.84; outcome = inactive
HRH3: viability hit class = no change; caspase hit class = no change; viability robust z-score = 0.44; caspase robust z-score = 2.76; outcome = inactive

The listing continues:
CCDC61: viability hit class = no change; caspase hit class = no change; viability robust z-score = 0.31; caspase robust z-score = 4.28; outcome = inactive
LGALS4: viability hit class = no change; caspase hit class = no change; viability robust z-score = -0.55; caspase robust z-score = 2.07; outcome = inactive
ATXN7L2: viability hit class = no change; caspase hit class = no change; viability robust z-score = 0.64; caspase robust z-score = -0.14; outcome = inactive
PWWP2B: viability hit class = no change; caspase hit class = no change; viability robust z-score = 1.01; caspase robust z-score = -0.06; outcome = inactive
GJA1: viability hit class = no change; caspase hit class = no change; viability robust z-score = 0.52; caspase robust z-score = -0.97; outcome = inactive
DR1: viability hit class = no change; caspase hit class = no change; viability robust z-score = 0.55; caspase robust z-score = -0.82; outcome = inactive
TKFC: viability hit class = no change; caspase hit class = no change; viability robust z-score = 0.46; caspase robust z-score = 2.69; outcome = inactive
ADAM21: viability hit class = no change; caspase hit class = no change; viability robust z-score = 0.3; caspase robust z-score = 0.95; outcome = inactive
EGR2: viability hit class = no change; caspase hit class = no change; viability robust z-score = -0.64; caspase robust z-score = -0.22; outcome = inactive
LPIN1: viability hit class = no change; caspase hit class = no change; viability robust z-score = 0.97; caspase robust z-score = 1.84; outcome = inactive
